Article PMC12040169 (PLOS Biology, 2025)
Some of the results follow.

system: T1, CTL2-GFP (C. trachomatis L2/434/Bu, GFP-expressing); parameters: species or system HeLa; Intracellular C. trachomatis growth in HeLa cells, bulk GFP fluorescence relative to DMSO; conditions: bulk GFP, single well; 28.5 h, 10 µM; inhibitor
T1 construct: L2/434/Bu, GFP-expressing

| SMILES | % of control remaining [%] |
| --- | --- |
| COc1cc([N+](=O)[O-])ccc1NC(=O)CN(C)S(=O)(=O)c1ccc2ccccc2c1 [CBK267387] | 106.424 |
| Cc1cccc(Cc2cccc(C3CCCN(S(=O)(=O)c4cn(C)nc4C)C3)n2)c1 (stereo not shown) [CBK286131] | 93.1703 |
| O=C(O)c1sccc1S(=O)(=O)Nc1ccc(Cc2nc3ccccc3s2)cc1 [CBK295286] | 145.865 |
| c1cncc(-c2ncc(-c3ccco3)c(-c3ccco3)n2)c1 [CBK284503] | 96.7886 |
| O=C(Nc1cccc2[nH]ccc12)c1cccc(F)c1Cl [CBK159638] | 121.11 |
| CC(=O)Nc1ccc(CN(C)c2c(C)nc3c(OCC4CCCCC4)cccn23)cc1 [CBK147379] | 101.79 |
| CNc1cc(N2CCN(S(=O)(=O)N(C)C)CC2)ccc1[N+](=O)[O-] [CBK269311] | 143.288 |
| Cc1ccc(-c2csc(NC(=O)CS(=O)(=O)c3ccccc3)n2)cc1 [CBK287707] | 84.2124 |
| Cc1ccc(NC(=O)C2CCCN2S(=O)(=O)c2ccc(F)cc2)cc1F (stereo not shown) [CBK110164] | 61.1736 |
| O=C(O)CSC1c2ccccc2Oc2ccc(F)cc21 (stereo not shown) [CBK266462] | 125.466 |
| O=C(O)CN1CCC(Oc2nccnc2OCc2ccc(Cl)c(Cl)c2)CC1 [CBK144443] | 114.851 |
| Cc1cc(Br)ccc1NC(=O)C(=O)NC1CC1 [CBK269284] | 143.589 |
| Cc1cc(C)c(-n2cccn2)c(CN2CCC(CO)C2)c1 (stereo not shown) [CBK282915] | 121.621 |
| COc1c(C)cc(Br)cc1C(=O)NC(=S)Nc1ccccc1N1CCN(C)CC1 [CBK267855C] | 103.784 |
| CN(CCOc1ccccc1)c1nccnc1N1CCNCC1 [CBK000035F] | 133.102 |
| Cc1cc(NS(=O)(=O)c2ccc(OCCNS(C)(=O)=O)cc2)no1 [CBK268530] | 167.736 |
| C[C@@H]1CN(c2ccc(C(F)(F)F)c(OCc3ccccc3)n2)CCN1 [CBK003987A] | 22.0675 |
| COc1ccc([C@@]23CC[C@@H](NC(=O)Nc4ccon4)C[C@@H]2N(C)CC3)cc1OC [CBK051069T] | 71.3899 |
| COCCN(Cc1cc2ccc(C)cc2nc1O)S(=O)(=O)c1ccccc1 [CBK269216] | 138.161 |
| Cc1n[nH]c(C)c1CNC(=O)C1CCN(Cc2ccc(F)cc2)CC1 [CBK282502] | 117.687 |
| c1csc(-c2nnc(C3CCN(Cc4ccsc4)CC3)o2)c1 [CBK285309] | 135.257 |
| COc1ccc2c(c1)C1(CC(=O)N(CCC3CCCCC3)C1=O)C(=O)N2C (stereo not shown) [CBK075147] | 80.7652 |
| CCC(=O)Nc1nc2ccccc2n1CCCN(C)C [CBK263492] | 123.793 |
| CC(O)c1ccc(-c2ccc(CNCCCN3CCOCC3)o2)cc1 (stereo not shown) [CBK278178C] | 145.662 |
| CCC1(C)CCCN(Cc2nnnn2-c2ccc(S(C)(=O)=O)cc2)C1 (stereo not shown) [CBK306180] | 101.341 |
| O=C(O)C12CC3CC(C(=O)O)(C1)CC(C(=O)O)(C3)C2 [CBK263442] | 100 |
| Cc1nc(COc2ccccc2)sc1C(=O)N1CCC(C(N)=O)CC1 [CBK202603] | 94.2863 |

Pulled one by one from above:

| SMILES | % of control remaining [%] |
| --- | --- |
| Cc1cc(Br)ccc1NC(=O)C(=O)NC1CC1 [CBK269284] | 143.589 |
| Cc1n[nH]c(C)c1CNC(=O)C1CCN(Cc2ccc(F)cc2)CC1 [CBK282502] | 117.687 |
| Cc1cccc(Cc2cccc(C3CCCN(S(=O)(=O)c4cn(C)nc4C)C3)n2)c1 (stereo not shown) [CBK286131] | 93.1703 |
| Cc1nc(COc2ccccc2)sc1C(=O)N1CCC(C(N)=O)CC1 [CBK202603] | 94.2863 |
| CC(O)c1ccc(-c2ccc(CNCCCN3CCOCC3)o2)cc1 (stereo not shown) [CBK278178C] | 145.662 |

Continued:

| SMILES | % of control remaining [%] |
| --- | --- |
| NCC1CCCN1C(=O)c1ccc(Oc2cccc(Br)c2)nc1 (stereo not shown) [CBK304200] | 57.1898 |
| O=C(Nc1nc2nccc(-c3ccccc3)n2n1)c1cccc([N+](=O)[O-])c1 [CBK265414] | 122.111 |
| CCCC(=O)c1ccc(S(=O)(=O)N2CCCN(Cc3ccc(OC)c(F)c3)CC2)cc1 [CBK062926] | 102.305 |
| COc1cc(C=O)ccc1Oc1nnnn1-c1ccc(C(=O)O)cc1 [CBK267071] | 153.253 |
| CCOC(=O)c1ccc(N2C(=O)CC(N3CCN(c4ccc(S(C)(=O)=O)cc4)CC3)C2=O)cc1 (stereo not shown) [CBK268721] | 98.2415 |
| NC(=S)c1ccc2c(c1)OCO2 [CBK022803] | 126.946 |
| CCc1nc2ccc(C(=O)Nc3ccc(OC)c(OC)c3)cn2c1N(C)C(=O)Nc1ccccc1OC [CBK145875] | 92.3105 |
| COc1ccc(OCCN2CCC(C(=O)c3ccc(F)cc3)CC2)cc1 [CBK149136] | 92.9329 |
| O=C(COc1ccc2ccccc2c1)N[C@@H](C(=O)O)c1ccc(O)cc1 [CBK286571] | 120.527 |
| COc1ccc(-n2c(=O)[nH]cc(C(=O)Nc3cccc(Cl)c3C)c2=O)cc1 [CBK287549] | 120.738 |
| O=c1c2ccccc2nc(COc2ccccc2)n1O [CBK288482] | 111.587 |
| N=c1n(CCN2CCCCC2)c2ccccc2n1CC(O)c1cccs1 (stereo not shown) [CBK262908C] | 100 |
| Cc1cc(C)c2nonc2c1S(=O)(=O)NCCN1CCCCC1CO (stereo not shown) [CBK306966] | 119.602 |
| CCCc1cnc(N2CCOCC2)nc1 [CBK028742] | 147.688 |
| CCOc1cc(S(=O)(=O)NCCCn2ccnc2)ccc1Cl [CBK269874] | 143.245 |
| Cc1nc2c(c(=O)[nH]1)CN(Cc1ccc(-c3ccccc3)cc1)CC2 [CBK283952] | 102.352 |
| Cc1nc2c(oc3nc(-c4ccoc4)c4c(c32)CC(C)(C)OC4)c(-c2ccccc2)c1C(=O)O [CBK265286] | 100 |
| O=C(c1cnn(-c2ccc(Cl)cc2Cl)c1)N1CCOCC1c1ncon1 (stereo not shown) [CBK304231] | 109.528 |
| CCc1c(CC)c(OC(=O)C(N)C(C)C)c2ccccc2c1OC (stereo not shown) [CBK016484C] | 93.4316 |
| COc1ccccc1-c1ccc(NC(=O)CCn2cnc3ccccc3c2=O)cc1 [CBK285711] | 119.992 |
| CCOC(=O)c1cccc(-c2ccc(F)cc2F)n1 [CBK149245] | 114.449 |
| CCN(CC)C(=O)CN(CCc1ccc(OC)c(OC)c1)C(=O)NCc1c(Cl)cccc1Cl [CBK158743] | 155.497 |
| CCc1[nH]nc2c1C1(CN3CCC1CC3)C(C#N)=C(N)O2 (stereo not shown) [CBK267454] | 105.199 |
| Cc1cccc(C(=O)N/N=C/c2ccoc2)c1O [CBK018727] | 119.523 |
| O=C(O)c1cccc(-c2cccc(N3CCN(c4ccccn4)CC3)n2)c1 [CBK036888] | 74.4229 |
| O=C(O)C1CC(=O)N(CCc2ccccc2)/C(=N/CCc2ccccc2)S1 (stereo not shown) [CBK265558] | 130.972 |
| CC(=O)Nc1ccc(S(=O)(=O)N2CCN(c3cc4[nH]c(=O)[nH]c4cc3[N+](=O)[O-])CC2)cc1 [CBK267013] | 186.718 |

| SMILES | % of control remaining [%] |
| --- | --- |
| CC1CCc2nc(NC(=O)Cn3cccc(C(=O)NC4CCCCC4)c3=O)sc2C1 (stereo not shown) [CBK286064] | 96.1004 |
| Cc1nnc2c(N3CCN(CCO)CC3)nc3ccccc3n12 [CBK270146] | 150.667 |
| O=C(c1ccccc1)N1C[C@@H]2CCCCN(CC3CC3)[C@@H]2C1 [CBK285498] | 149.006 |
| COc1ccc(-c2ccccc2NC(=O)c2cccc(CN3CCCC3=O)c2)cc1 [CBK285865] | 110.704 |
| O=C(C1CCCCC1)N1CCC(n2c(=O)[nH]c3ccccc32)CC1 [CBK149703] | 115.168 |
| COC(=O)c1ccc(/C=C/C2=CCN(C)CC2)cc1 [CBK283744] | 97.24 |
| CNC(=O)c1cc2ncc(C(F)(F)F)cc2s1 [CBK089882] | 134.288 |
| Cc1ccc(S(=O)(=O)N2CCN(c3nc(NC(C)c4ccccc4)c4ccccc4n3)CC2)cc1 (stereo not shown) [CBK266448] | 129.927 |
| Cc1ccc(/N=N/N(CC(O)C(O)C(O)CO)c2ccc(C)c(C)c2)cc1C (stereo not shown) [CBK262705] | 110.495 |
| c1c2c(cc3sc(N4CCCC4)nc13)OCCO2 [CBK287496] | 165.971 |
| Cn1c(=O)c(C(=O)Nc2ccc(Cl)cc2)cc2cccnc21 [CBK287741] | 114.645 |
| COC(Cc1nc2ccccc2s1)C(=O)O (stereo not shown) [CBK265806] | 197.415 |
| O=C(Nc1nnc(-c2ccncc2)o1)c1ccc(Cl)cc1Cl [CBK287433] | 148.724 |
| COc1cc(NC(=O)c2ccc3c(c2)C(=O)N(c2c(C)cc(C)cc2C)C3=O)c(C(=O)O)cc1OC [CBK264074] | 135.053 |
| Cc1nn(-c2ccccc2)c(C)c1C1CC(=O)Nc2c1cnn2C(C)C (stereo not shown) [CBK287925] | 120.585 |
| CCCn1ncc(CN2CCC(c3cc4cccnc4[nH]3)CC2)c1C [CBK284949] | 132.794 |
| Cc1nn(CC(=O)N2CCN(C)CC2)c(=O)c2ccccc12 [CBK304221] | 63.1064 |
| O=C(O)CC1Sc2ccccc2NC1=O (stereo not shown) [CBK261308] | 113.505 |
| COC(=O)c1nn(C(=O)N(C)C)c(C)c1Br [CBK005077] | 126.203 |
| CC(C)(C)OC(=O)COc1cc2oc(=O)cc(-c3ccccc3)c2cc1Cl [CBK263729] | 100 |
| CN1CCN(c2ccc([N+](=O)[O-])c(NCc3ccccc3)c2)CC1 [CBK042199] | 107.121 |
| CS(=O)(=O)Nc1nnc(SCC(=O)Nc2cccc([N+](=O)[O-])c2)s1 [CBK045536] | 117.548 |
| O=C(CC1=C(O)C(=O)c2ccccc2C1=O)c1ccccc1 [CBK262002] | 100.049 |
| CN(CCO)c1ccc(C(=O)N2CCC(N3CCOCC3)CC2)cn1 [CBK306899] | 134.729 |
| COc1ccc(Br)cc1C(=O)Nc1cc(-c2nc3ccccc3[nH]2)ccc1Cl [CBK264112] | 100 |
